Results reported in PMC4990929.
Results are given in words; binding and its absence hold for the method and conditions named. For part of these data: Binding can be weak; no strength is given. Sequences can lack the tags named with a protein.

What was measured:
[1] = target: BD-TvCBL1 (calcineurin B-like protein 1 from Trichomonas vaginalis, binding domain fusion) (Trichomonas vaginalis); experiment: two-hybrid
[2] = target: BD-TvCBL2 (calcineurin B-like protein 2 from Trichomonas vaginalis, binding domain fusion) (Trichomonas vaginalis); experiment: two-hybrid

B1: AtCIPK8 (Arabidopsis thaliana CBL-interacting protein kinase 8), two-hybrid fusion (enzyme, UniProt Q9STV4 1-445)
chain: MVVRKVGKYELGRTIGEGTFAKVKFAQNTETGESVAMKIVDRSTIIKRKMVDQIKREISIMKLVRHPCVVRLYEVLASRTKIYIILEYITGGELFDKIVRNGRLSESEARKYFHQLIDGVDYCHSKGVYHRDLKPENLLLDSQGNLKISDFGLSALPEQGVTILKTTCGTPNYVAPEVLSHKGYNGAVADIWSCGVILYVLMAGYLPFDEMDLPTLYSKIDKAEFSCPSYFALGAKSLINRILDPNPETRITIAEIRKDEWFLKDYTPVQLIDYEHVNLDDVYAAFDDPEEQTYAQDGTRDTGPLTLNAFDLIILSQGLNLATLFDRGKDSMKHQTRFISHKPANVVLSSMEVVSQSMGFKTHIRNYKMRVEGLSANKTSHFSVILEVFKVAPSILMVDIQNAAGDAEEYLKFYKTFCSKLDDIIWKPPDASMRNRVTKAKSKRR
[1]
  binding: binds
[2]
  binding: no binding

B2: AtCIPK1 (Arabidopsis thaliana CBL-interacting protein kinase 1), two-hybrid fusion (enzyme, UniProt Q8RWC9 1-444)
chain: MVRRQEEEKKAEKGMRLGKYELGRTLGEGNFGKVKFAKDTVSGHSFAVKIIDKSRIADLNFSLQIKREIRTLKMLKHPHIVRLHEVLASKTKINMVMELVTGGELFDRIVSNGKLTETDGRKMFQQLIDGISYCHSKGVFHRDLKLENVLLDAKGHIKITDFGLSALPQHFRDDGLLHTTCGSPNYVAPEVLANRGYDGAASDIWSCGVILYVILTGCLPFDDRNLAVLYQKICKGDPPIPRWLSPGARTMIKRMLDPNPVTRITVVGIKASEWFKLEYIPSIPDDDDEEEVDTDDDAFSIQELGSEEGKGSDSPTIINAFQLIGMSSFLDLSGFFEQENVSERRIRFTSNSSAKDLLEKIETAVTEMGFSVQKKHAKLRVKQEERNQKGQVGLSVTAEVFEIKPSLNVVELRKSYGDSCLYRQLYERLLKDVGTSSPEQEIVT
[2]
  binding: no binding
